Data as given in the supplement of paper PMC8728848.
This is one part of the list.

What was measured:
Experiment in all cases: glycan array binding signal (z-score within array); higher = stronger binding
Conditions in all cases: glycan notation: IUPAC condensed, linker removed
GlcNAc(b1-3)Gal(b1-4)Glc = biological target: GlcNAc(b1-3)Gal(b1-4)Glc
How it was run: (§1)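 Negative Z-scores can be read as non-binding. The Z-score is calculated within each array and then averaged across arrays of one protein sequence at different concentrations or buffers and across linkers. Arrays, 3228 in all, were curated from the Consortium for Functional Glycomics database and kept only where the protein sequence was available.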

[1] = biological target: GlcNAc(b1-3)Gal(b1-4)GlcNAc
How it was run: as §1

[2] = biological target: GlcNAc(b1-3)Gal(b1-4)GlcNAc(b1-2)Man(a1-3)[GlcNAc(b1-3)Gal(b1-4)GlcNAc(b1-2)Man(a1-6)]Man(b1-4)GlcNAc(b1-4)GlcNAc
How it was run: as §1

[3] = biological target: GlcNAc(b1-3)Gal(b1-4)GlcNAc(b1-2)Man(a1-3)[GlcNAc(b1-3)Gal(b1-4)GlcNAc(b1-2)Man(a1-6)]Man(b1-4)GlcNAc(b1-4)[Fuc(a1-6)]GlcNAc
How it was run: as §1

[4] = biological target: GlcNAc(b1-3)Gal(b1-4)GlcNAc(b1-2)[GlcNAc(b1-3)Gal(b1-4)GlcNAc(b1-6)]Man(a1-6)[GlcNAc(b1-3)Gal(b1-4)GlcNAc(b1-2)Man(a1-3)]Man(b1-4)GlcNAc(b1-4)GlcNAc
How it was run: as §1

[5] = biological target: GlcNAc(b1-3)Gal(b1-4)GlcNAc(b1-3)Gal(b1-4)GlcNAc
How it was run: as §1

[6] = biological target: GlcNAc(b1-3)Gal(b1-4)GlcNAc(b1-3)Gal(b1-4)GlcNAc(b1-2)Man(a1-3)[GlcNAc(b1-3)Gal(b1-4)GlcNAc(b1-3)Gal(b1-4)GlcNAc(b1-2)Man(a1-6)]Man(b1-4)GlcNAc(b1-4)GlcNAc
How it was run: as §1

[7] = biological target: GlcNAc(b1-3)Gal(b1-4)GlcNAc(b1-3)Gal(b1-4)GlcNAc(b1-2)Man(a1-3)[GlcNAc(b1-3)Gal(b1-4)GlcNAc(b1-3)Gal(b1-4)GlcNAc(b1-2)Man(a1-6)]Man(b1-4)GlcNAc(b1-4)[Fuc(a1-6)]GlcNAc
How it was run: as §1

[8] = biological target: GlcNAc(b1-3)Gal(b1-4)GlcNAc(b1-3)Gal(b1-4)GlcNAc(b1-2)[GlcNAc(b1-3)Gal(b1-4)GlcNAc(b1-3)Gal(b1-4)GlcNAc(b1-6)]Man(a1-6)[GlcNAc(b1-3)Gal(b1-4)GlcNAc(b1-3)Gal(b1-4)GlcNAc(b1-2)Man(a1-3)]Man(b1-4)GlcNAc(b1-4)[Fuc(a1-6)]GlcNAc
How it was run: as §1

[9] = biological target: GlcNAc(b1-3)Gal(b1-4)GlcNAc(b1-3)Gal(b1-4)GlcNAc(b1-3)Gal(b1-4)GlcNAc(b1-2)Man(a1-3)[GlcNAc(b1-3)Gal(b1-4)GlcNAc(b1-3)Gal(b1-4)GlcNAc(b1-3)Gal(b1-4)GlcNAc(b1-2)Man(a1-6)]Man(b1-4)GlcNAc(b1-4)GlcNAc
How it was run: as §1

[10] = biological target: GlcNAc(b1-3)Gal(b1-4)GlcNAc(b1-3)Gal(b1-4)GlcNAc(b1-3)Gal(b1-4)GlcNAc(b1-2)Man(a1-3)[GlcNAc(b1-3)Gal(b1-4)GlcNAc(b1-3)Gal(b1-4)GlcNAc(b1-3)Gal(b1-4)GlcNAc(b1-2)Man(a1-6)]Man(b1-4)GlcNAc(b1-4)[Fuc(a1-6)]GlcNAc
How it was run: as §1

[11] = biological target: GlcNAc(b1-3)Gal(b1-4)GlcNAc(b1-3)Gal(b1-4)GlcNAc(b1-3)Gal(b1-4)GlcNAc(b1-2)[GlcNAc(b1-3)Gal(b1-4)GlcNAc(b1-3)Gal(b1-4)GlcNAc(b1-3)Gal(b1-4)GlcNAc(b1-6)]Man(a1-6)[GlcNAc(b1-3)Gal(b1-4)GlcNAc(b1-3)Gal(b1-4)GlcNAc(b1-3)Gal(b1-4)GlcNAc(b1-2)Man(a1-3)]Man(b1-4)GlcNAc(b1-4)[Fuc(a1-6)]GlcNAc
How it was run: as §1

[12] = biological target: GlcNAc(b1-3)Gal(b1-4)GlcNAc(b1-3)Gal(b1-4)GlcNAc(b1-3)Gal(b1-4)GlcNAc(b1-3)Gal(b1-4)GlcNAc(b1-2)Man(a1-3)[GlcNAc(b1-3)Gal(b1-4)GlcNAc(b1-3)Gal(b1-4)GlcNAc(b1-3)Gal(b1-4)GlcNAc(b1-3)Gal(b1-4)GlcNAc(b1-2)Man(a1-6)]Man(b1-4)GlcNAc(b1-4)GlcNAc
How it was run: as §1

[13] = biological target: GlcNAc(b1-3)Gal(b1-4)GlcNAc(b1-3)Gal(b1-4)GlcNAc(b1-3)Gal(b1-4)GlcNAc(b1-3)Gal(b1-4)GlcNAc(b1-2)Man(a1-3)[GlcNAc(b1-3)Gal(b1-4)GlcNAc(b1-3)Gal(b1-4)GlcNAc(b1-3)Gal(b1-4)GlcNAc(b1-3)Gal(b1-4)GlcNAc(b1-2)Man(a1-6)]Man(b1-4)GlcNAc(b1-4)[Fuc(a1-6)]GlcNAc
How it was run: as §1

[14] = biological target: GlcNAc(b1-3)Gal(b1-4)GlcNAc(b1-3)Gal(b1-4)GlcNAc(b1-3)Gal(b1-4)GlcNAc(b1-3)Gal(b1-4)GlcNAc(b1-2)[GlcNAc(b1-3)Gal(b1-4)GlcNAc(b1-3)Gal(b1-4)GlcNAc(b1-3)Gal(b1-4)GlcNAc(b1-3)Gal(b1-4)GlcNAc(b1-6)]Man(a1-6)[GlcNAc(b1-3)Gal(b1-4)GlcNAc(b1-3)Gal(b1-4)GlcNAc(b1-3)Gal(b1-4)GlcNAc(b1-3)Gal(b1-4)GlcNAc(b1-2)Man(a1-3)]Man(b1-4)GlcNAc(b1-4)[Fuc(a1-6)]GlcNAc
How it was run: as §1

[15] = biological target: GlcNAc(b1-3)Gal(b1-4)GlcNAc(b1-3)Gal(b1-4)GlcNAc(b1-3)GalNAc
How it was run: as §1

[16] = biological target: GlcNAc(b1-3)Gal(b1-4)GlcNAc(b1-3)GalNAc
How it was run: as §1

[17] = biological target: GlcNAc(b1-3)Gal(b1-4)GlcNAc(b1-3)[GlcNAc(b1-3)Gal(b1-4)GlcNAc(b1-3)]GalNAc
How it was run: as §1

[18] = biological target: GlcNAc(b1-3)Gal(b1-4)GlcNAc(b1-6)[Gal(b1-3)]GalNAc
How it was run: as §1

[19] = biological target: GlcNAc(b1-3)Gal(b1-4)GlcNAc(b1-6)[GlcNAc(b1-3)Gal(b1-3)]GalNAc
How it was run: as §1

[20] = biological target: GlcNAc(b1-3)Gal(b1-4)GlcNAc(b1-6)[GlcNAc(b1-3)]Gal(b1-4)GlcNAc
How it was run: as §1

GlcNAc(b1-3)GalNAc = biological target: GlcNAc(b1-3)GalNAc
How it was run: as §1

GlcNAc(b1-3)Man = biological target: GlcNAc(b1-3)Man
How it was run: as §1

[21] = biological target: GlcNAc(b1-3)[GlcNAc(b1-4)][GlcNAc(b1-6)]GlcNAc
How it was run: as §1

[22] = biological target: GlcNAc(b1-3)[GlcNAc(b1-6)]Gal(b1-4)GlcNAc
How it was run: as §1

[23] = biological target: GlcNAc(b1-3)[GlcNAc(b1-6)]GalNAc
How it was run: as §1

[24] = biological target: GlcNAc(b1-4)Gal(b1-4)GlcNAc
How it was run: as §1

GlcNAc(b1-4)GlcNAc = biological target: GlcNAc(b1-4)GlcNAc
How it was run: as §1

[25] = biological target: GlcNAc(b1-4)GlcNAc(b1-4)GlcNAc
How it was run: as §1

[26] = biological target: GlcNAc(b1-4)GlcNAc(b1-4)GlcNAc(b1-4)GlcNAc(b1-4)GlcNAc
How it was run: as §1

[27] = biological target: GlcNAc(b1-4)GlcNAc(b1-4)GlcNAc(b1-4)GlcNAc(b1-4)GlcNAc(b1-4)GlcNAc
How it was run: as §1

[28] = biological target: GlcNAc(b1-4)[GlcNAc(b1-6)]GalNAc
How it was run: as §1

[29] = biological target: GlcNAc(b1-6)Gal(b1-4)GlcNAc
How it was run: as §1

GlcNAc(b1-6)GalNAc = biological target: GlcNAc(b1-6)GalNAc
How it was run: as §1

[30] = biological target: GlcNAc6S(b1-3)Gal(b1-4)GlcNAc
How it was run: as §1

Kdn(a2-3)Gal(b1-3)GalNAc = biological target: Kdn(a2-3)Gal(b1-3)GalNAc
How it was run: as §1

Kdn(a2-3)Gal(b1-3)GlcNAc = biological target: Kdn(a2-3)Gal(b1-3)GlcNAc
How it was run: as §1

Kdn(a2-3)Gal(b1-4)Glc = biological target: Kdn(a2-3)Gal(b1-4)Glc
How it was run: as §1

Kdn(a2-3)Gal(b1-4)GlcNAc = biological target: Kdn(a2-3)Gal(b1-4)GlcNAc
How it was run: as §1

[31] = biological target: Kdn(a2-3)Gal(b1-4)[Fuc(a1-3)]GlcNAc
How it was run: as §1

Kdn(a2-6)Gal(b1-4)GlcNAc = biological target: Kdn(a2-6)Gal(b1-4)GlcNAc
How it was run: as §1

[32] = biological target: Man(a1-2)Man(a1-2)Man(a1-3)Man
How it was run: as §1

[33] = biological target: Man(a1-2)Man(a1-2)Man(a1-6)[Man(a1-3)]Man
How it was run: as §1

Man(a1-2)Man(a1-3)Man = biological target: Man(a1-2)Man(a1-3)Man
How it was run: as §1

[34] = biological target: Man(a1-2)Man(a1-3)[Man(a1-2)Man(a1-6)]Man
How it was run: as §1

B1: EUL D1A (Oryza sativa) (protein)
chain: MFGFGHHHNQAPAAPSDPNQIFKIFCRANENYCLTVRDSAVVLAPVNPKDEHQHWFKDMRFSTKVKDGEGMPAFALVNKATGLAVKHSLGQSHPVKLVPFNPEYEDASVLWTESKDVGKGFRCIRMVNNTRLNLDAFHGDKDHGGVRDGTTVVLWEWCKGDNQSWKILPWGPEAHSSSPGAATACTIGGVPVHTVRVFSAAGEDYCLTVRNGTACLAPKNPRDDYQHWIKDMRHSNKIRDEEGYPAFALVNKVTGEAIKHSTGQGHPVKLVPYNPEYQDESVLWTESKDVGKGFRCIRMVNNIYLNFDAFHGDKDHGGIHDGTEIVLWKWCEGDNQRWKILPWILEQKLISEEDLNSAVDHHHHHH
glycan array binding signal (z-score) (GlcNAc(b1-3)Gal(b1-4)Glc): 0.211 | glycan array binding signal (z-score) [1]: -0.108 | glycan array binding signal (z-score) [2]: -1.41 | glycan array binding signal (z-score) [3]: 0.665 | glycan array binding signal (z-score) [4]: 2.19 | glycan array binding signal (z-score) [5]: 0.418 | glycan array binding signal (z-score) [6]: -0.886 | glycan array binding signal (z-score) [7]: 0.655 | glycan array binding signal (z-score) [8]: 1.36 | glycan array binding signal (z-score) [9]: -0.584 | glycan array binding signal (z-score) [10]: 1.55 | glycan array binding signal (z-score) [11]: 1.32 | glycan array binding signal (z-score) [12]: 1.19 | glycan array binding signal (z-score) [13]: 1.58 | glycan array binding signal (z-score) [14]: 0.277 | glycan array binding signal (z-score) [15]: 1.48 | glycan array binding signal (z-score) [16]: 0.573 | glycan array binding signal (z-score) [17]: -0.477 | glycan array binding signal (z-score) [18]: 0.953 | glycan array binding signal (z-score) [19]: -0.71 | glycan array binding signal (z-score) [20]: -1.03 | glycan array binding signal (z-score) (GlcNAc(b1-3)GalNAc): 0.155 | glycan array binding signal (z-score) (GlcNAc(b1-3)Man): -0.254 | glycan array binding signal (z-score) [21]: -0.383 | glycan array binding signal (z-score) [22]: -0.177 | glycan array binding signal (z-score) [23]: 0.207 | glycan array binding signal (z-score) [24]: -1.13 | glycan array binding signal (z-score) (GlcNAc(b1-4)GlcNAc): -0.192 | glycan array binding signal (z-score) [25]: -2.04 | glycan array binding signal (z-score) [26]: 0.586 | glycan array binding signal (z-score) [27]: -0.762 | glycan array binding signal (z-score) [28]: -0.652 | glycan array binding signal (z-score) [29]: -1.58 | glycan array binding signal (z-score) (GlcNAc(b1-6)GalNAc): 0.016 | glycan array binding signal (z-score) [30]: 1.24 | glycan array binding signal (z-score) (Kdn(a2-3)Gal(b1-3)GalNAc): -0.052 | glycan array binding signal (z-score) (Kdn(a2-3)Gal(b1-3)GlcNAc): 0.784 | glycan array binding signal (z-score) (Kdn(a2-3)Gal(b1-4)Glc): -0.495 | glycan array binding signal (z-score) (Kdn(a2-3)Gal(b1-4)GlcNAc): -0.412 | glycan array binding signal (z-score) [31]: -1.54 | glycan array binding signal (z-score) (Kdn(a2-6)Gal(b1-4)GlcNAc): -0.651 | glycan array binding signal (z-score) [32]: -0.835 | glycan array binding signal (z-score) [33]: -1.18 | glycan array binding signal (z-score) (Man(a1-2)Man(a1-3)Man): -0.772 | glycan array binding signal (z-score) [34]: -0.434
